{"source": "PubChem BioAssay AID1259282, Sanger Institute, 2017", "aim": "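Kinase knock-downs that work with targeted colorectal cancer drugs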 (primary screen)", "cells": "DIFI human colorectal cancer cell line", "reagents": "siRNA pool against human genes", "treatment": "anchor drug at a mild dose (BYL719 1 µM, cetuximab 5 µg/ml, trametinib 10 nM) or DMSO vehicle; exposure time not given", "detection": "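Robust z-score and replicate-mean viability versus non-targeting pool without drug, plus a synergy score for each low-dose anchor drug (BYL719, cetuximab, trametinib)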", "direction": "robust z-score, knock-down alone: higher = more viable cells than typical knock-down; viability, knock-down alone: higher = more viable cells", "units": "viability, knock-down alone in fraction of control", "rule for the call": "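a knock-down is called essential if its DMSO robust z-score is under -3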", "calls": "active = essential (knock-down alone, z below -3); inactive = not essential", "note": "In all, the deposit lists 794 reagents; below is a random part of them. Over the whole deposit, 11 (1.4%) got an active call. 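Calls flag knock-downs that lower viability without drug; drug synergy appears only in the synergy scores; exposure time not stated.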 Entries without a mark were called inactive. No viability above 1 is reported: the scale is capped. Not all columns of the deposit are shown. The record does not give: the amount of reagent, the time to read-out."}
The opening 3 entries, to show the layout:
{"gene": "STRADA (GeneID 92335)", "robust z-score, knock-down alone": 0.715, "viability, knock-down alone": 1}
{"gene": "AK3 (GeneID 50808)", "robust z-score, knock-down alone": 0.393, "viability, knock-down alone": 0.953}
{"gene": "BUB1 (GeneID 699)", "robust z-score, knock-down alone": 0.48, "viability, knock-down alone": 0.966}

The listing, from the start:
{"gene": "STRADA (GeneID 92335)", "robust z-score, knock-down alone": 0.715, "viability, knock-down alone": 1}
{"gene": "AK3 (GeneID 50808)", "robust z-score, knock-down alone": 0.393, "viability, knock-down alone": 0.953}
{"gene": "BUB1 (GeneID 699)", "robust z-score, knock-down alone": 0.48, "viability, knock-down alone": 0.966}
{"gene": "APC (GeneID 324)", "robust z-score, knock-down alone": -1.73, "viability, knock-down alone": 0.645}
{"gene": "PDGFRL (GeneID 5157)", "robust z-score, knock-down alone": 0.715, "viability, knock-down alone": 1}
{"gene": "CHEK2 (GeneID 11200)", "robust z-score, knock-down alone": 0.715, "viability, knock-down alone": 1}
{"gene": "IRAK2 (GeneID 3656)", "robust z-score, knock-down alone": 0.715, "viability, knock-down alone": 1}
{"gene": "UCKL1 (GeneID 54963)", "robust z-score, knock-down alone": 0.715, "viability, knock-down alone": 1}
{"gene": "CDK5R2 (GeneID 8941)", "robust z-score, knock-down alone": 0.715, "viability, knock-down alone": 1}
{"gene": "DYRK1B (GeneID 9149)", "robust z-score, knock-down alone": 0.196, "viability, knock-down alone": 0.925}
{"gene": "TRIB1 (GeneID 10221)", "robust z-score, knock-down alone": 0.715, "viability, knock-down alone": 1}
{"gene": "RSKR (GeneID 124923)", "robust z-score, knock-down alone": 0.245, "viability, knock-down alone": 0.932}
{"gene": "MAPK6 (GeneID 5597)", "robust z-score, knock-down alone": -1.18, "viability, knock-down alone": 0.725}
{"gene": "TRPM6 (GeneID 140803)", "robust z-score, knock-down alone": 0.715, "viability, knock-down alone": 1}
{"gene": "STRADB (GeneID 55437)", "robust z-score, knock-down alone": 0.715, "viability, knock-down alone": 1}
{"gene": "SMAD4 (GeneID 4089)", "robust z-score, knock-down alone": -1, "viability, knock-down alone": 0.751}
{"gene": "ACVR1B (GeneID 91)", "robust z-score, knock-down alone": 0.715, "viability, knock-down alone": 1}
{"gene": "MAP4K1 (GeneID 11184)", "robust z-score, knock-down alone": 0.698, "viability, knock-down alone": 0.998}
{"gene": "KCNH8 (GeneID 131096)", "robust z-score, knock-down alone": "-3.15 (active)", "viability, knock-down alone": 0.438}
{"gene": "POMK (GeneID 84197)", "robust z-score, knock-down alone": 0.715, "viability, knock-down alone": 1}
{"gene": "PAPSS1 (GeneID 9061)", "robust z-score, knock-down alone": 0.173, "viability, knock-down alone": 0.921}
{"gene": "SCYL1 (GeneID 57410)", "robust z-score, knock-down alone": 0.715, "viability, knock-down alone": 1}
{"gene": "EFNA5 (GeneID 1946)", "robust z-score, knock-down alone": 0.715, "viability, knock-down alone": 1}
{"gene": "EPHA7 (GeneID 2045)", "robust z-score, knock-down alone": -1.91, "viability, knock-down alone": 0.619}
{"gene": "GK (GeneID 2710)", "robust z-score, knock-down alone": 0.715, "viability, knock-down alone": 1}
{"gene": "TWF1 (GeneID 5756)", "robust z-score, knock-down alone": 0.715, "viability, knock-down alone": 1}
{"gene": "DAPK1 (GeneID 1612)", "robust z-score, knock-down alone": -0.0759, "viability, knock-down alone": 0.885}
{"gene": "STK17A (GeneID 9263)", "robust z-score, knock-down alone": -1.85, "viability, knock-down alone": 0.628}
